This passage reports binding results from PMC3666947.

The chains behind the UniProt entries cited, without tags or fusion partners.
UniProt G5E870: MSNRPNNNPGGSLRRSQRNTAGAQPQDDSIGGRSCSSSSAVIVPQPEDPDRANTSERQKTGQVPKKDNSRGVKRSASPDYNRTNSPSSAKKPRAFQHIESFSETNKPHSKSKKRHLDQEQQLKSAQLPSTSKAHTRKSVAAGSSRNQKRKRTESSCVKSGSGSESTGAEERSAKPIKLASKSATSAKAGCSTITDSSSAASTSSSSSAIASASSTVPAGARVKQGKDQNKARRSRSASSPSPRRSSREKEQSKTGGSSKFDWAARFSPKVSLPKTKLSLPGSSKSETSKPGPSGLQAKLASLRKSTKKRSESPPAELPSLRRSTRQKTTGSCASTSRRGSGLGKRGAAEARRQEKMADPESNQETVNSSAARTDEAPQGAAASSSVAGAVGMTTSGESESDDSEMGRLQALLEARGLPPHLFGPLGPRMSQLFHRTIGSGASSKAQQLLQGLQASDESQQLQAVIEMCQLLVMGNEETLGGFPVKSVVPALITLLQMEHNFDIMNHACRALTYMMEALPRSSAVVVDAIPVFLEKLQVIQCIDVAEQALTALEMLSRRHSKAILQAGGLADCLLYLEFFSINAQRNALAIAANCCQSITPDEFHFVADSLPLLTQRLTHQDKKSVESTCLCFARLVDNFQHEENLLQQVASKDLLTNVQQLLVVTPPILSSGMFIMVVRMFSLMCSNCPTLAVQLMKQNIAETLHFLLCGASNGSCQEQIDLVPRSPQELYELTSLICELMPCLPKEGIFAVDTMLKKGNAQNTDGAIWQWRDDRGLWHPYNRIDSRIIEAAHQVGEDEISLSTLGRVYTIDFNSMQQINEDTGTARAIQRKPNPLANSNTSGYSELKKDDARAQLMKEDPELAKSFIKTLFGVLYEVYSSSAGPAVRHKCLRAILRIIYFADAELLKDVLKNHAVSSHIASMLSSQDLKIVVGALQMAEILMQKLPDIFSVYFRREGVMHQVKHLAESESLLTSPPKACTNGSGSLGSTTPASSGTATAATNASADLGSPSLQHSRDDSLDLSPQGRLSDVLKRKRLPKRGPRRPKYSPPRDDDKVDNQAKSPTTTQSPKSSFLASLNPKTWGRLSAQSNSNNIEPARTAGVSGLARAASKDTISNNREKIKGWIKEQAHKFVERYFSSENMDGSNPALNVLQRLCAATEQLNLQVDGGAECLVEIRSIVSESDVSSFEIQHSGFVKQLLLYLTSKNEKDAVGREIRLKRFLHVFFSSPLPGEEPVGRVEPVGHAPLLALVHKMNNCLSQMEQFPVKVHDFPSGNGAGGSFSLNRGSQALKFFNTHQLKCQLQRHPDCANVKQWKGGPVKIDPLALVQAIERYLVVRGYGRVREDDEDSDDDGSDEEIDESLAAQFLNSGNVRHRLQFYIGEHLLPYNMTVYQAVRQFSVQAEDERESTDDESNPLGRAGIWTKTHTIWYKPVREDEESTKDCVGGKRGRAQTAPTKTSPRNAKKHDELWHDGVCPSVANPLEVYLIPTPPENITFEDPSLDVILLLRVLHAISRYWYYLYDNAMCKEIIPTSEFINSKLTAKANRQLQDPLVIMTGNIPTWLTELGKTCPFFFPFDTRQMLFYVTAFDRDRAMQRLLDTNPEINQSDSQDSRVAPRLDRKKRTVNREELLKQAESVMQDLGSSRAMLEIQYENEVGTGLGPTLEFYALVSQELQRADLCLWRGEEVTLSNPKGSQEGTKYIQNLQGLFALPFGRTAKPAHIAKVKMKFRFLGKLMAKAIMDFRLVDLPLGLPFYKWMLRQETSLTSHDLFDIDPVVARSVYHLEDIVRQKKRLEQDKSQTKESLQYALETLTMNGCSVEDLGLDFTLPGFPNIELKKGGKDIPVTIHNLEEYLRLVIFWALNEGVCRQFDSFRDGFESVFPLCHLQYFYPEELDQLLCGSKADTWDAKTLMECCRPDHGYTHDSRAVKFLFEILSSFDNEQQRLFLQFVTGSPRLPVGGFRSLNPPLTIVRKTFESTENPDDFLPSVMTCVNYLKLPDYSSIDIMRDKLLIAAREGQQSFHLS
UniProt P40645: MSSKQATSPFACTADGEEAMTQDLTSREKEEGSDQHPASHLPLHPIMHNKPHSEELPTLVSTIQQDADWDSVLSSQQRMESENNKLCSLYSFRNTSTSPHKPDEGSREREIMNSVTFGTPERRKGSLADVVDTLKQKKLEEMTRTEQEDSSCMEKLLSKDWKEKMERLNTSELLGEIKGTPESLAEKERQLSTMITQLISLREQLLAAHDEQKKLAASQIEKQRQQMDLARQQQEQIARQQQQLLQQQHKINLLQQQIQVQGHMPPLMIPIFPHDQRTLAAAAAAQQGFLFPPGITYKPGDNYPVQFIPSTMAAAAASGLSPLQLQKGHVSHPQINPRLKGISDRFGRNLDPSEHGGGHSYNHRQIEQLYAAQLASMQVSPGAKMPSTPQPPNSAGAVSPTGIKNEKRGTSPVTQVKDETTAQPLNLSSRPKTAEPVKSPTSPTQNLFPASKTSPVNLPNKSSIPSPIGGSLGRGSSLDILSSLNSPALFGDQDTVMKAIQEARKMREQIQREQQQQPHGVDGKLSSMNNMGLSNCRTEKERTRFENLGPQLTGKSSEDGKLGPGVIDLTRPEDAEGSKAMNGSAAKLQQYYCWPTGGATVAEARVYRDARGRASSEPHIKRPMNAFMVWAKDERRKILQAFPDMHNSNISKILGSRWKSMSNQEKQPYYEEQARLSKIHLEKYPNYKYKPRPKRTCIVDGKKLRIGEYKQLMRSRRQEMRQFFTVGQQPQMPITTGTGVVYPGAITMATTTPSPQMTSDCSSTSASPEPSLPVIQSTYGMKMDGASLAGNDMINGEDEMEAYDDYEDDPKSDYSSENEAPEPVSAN

This assay addresses endogenous mouse Trip12 (mouse (endogenous in C2C12)) (UniProt G5E870). Briefly: co-IP; endogenous proteins, nuclear fractions of C2C12 cells differentiated 48 h in DM; NaCl adjusted to ~150 mM; IP with rabbit anti-TRIP12 or anti-Sox6 (Rabbit TrueBlot Set), anti-GST as negative control; Western blot. In general terms: In western blotting, separated proteins are transferred to a membrane and probed.

No constants are given. Whether binding was seen depends on the method and setting. Binding seen in cells or lysates may run through a third protein. Some entries that bind do so weakly or less than the wild type.

Regarding “endogenous mouse Sox6 (from UniProt P40645 1-827)”, the binding entry is reported as “binds”.
